Measured values reported in patent US9248089B2 (GRF (WUHAN) BIOTECHNOLOGY INC., priority 2011, dated 2016).

Assay: general procedure: Fmoc solid-phase peptide synthesis; Rink-amide resin
Settings: whole synthesis

Substance	purity (crude or final not stated) (HPLC method A)	purity (crude or final not stated) (HPLC method B)	purity (crude or final not stated) (HPLC method C)
Ac-E(OMe)E(OMe)MQRR-NH2	about 98.8%	about 91.6%	
Ac-Glu(OMe)-Glu(OMe)-Met-Gln-Arg(Boc)2-Arg(Boc)2-NH2			about 97.1%
